# From PubChem BioAssay AID2073 (Sanford-Burnham Center for Chemical Genomics, 2009)
# Sequences of proteins named here, by UniProt entry; tags and fusion partners are left off.
# UniProt Q00975, whole entry, looked up: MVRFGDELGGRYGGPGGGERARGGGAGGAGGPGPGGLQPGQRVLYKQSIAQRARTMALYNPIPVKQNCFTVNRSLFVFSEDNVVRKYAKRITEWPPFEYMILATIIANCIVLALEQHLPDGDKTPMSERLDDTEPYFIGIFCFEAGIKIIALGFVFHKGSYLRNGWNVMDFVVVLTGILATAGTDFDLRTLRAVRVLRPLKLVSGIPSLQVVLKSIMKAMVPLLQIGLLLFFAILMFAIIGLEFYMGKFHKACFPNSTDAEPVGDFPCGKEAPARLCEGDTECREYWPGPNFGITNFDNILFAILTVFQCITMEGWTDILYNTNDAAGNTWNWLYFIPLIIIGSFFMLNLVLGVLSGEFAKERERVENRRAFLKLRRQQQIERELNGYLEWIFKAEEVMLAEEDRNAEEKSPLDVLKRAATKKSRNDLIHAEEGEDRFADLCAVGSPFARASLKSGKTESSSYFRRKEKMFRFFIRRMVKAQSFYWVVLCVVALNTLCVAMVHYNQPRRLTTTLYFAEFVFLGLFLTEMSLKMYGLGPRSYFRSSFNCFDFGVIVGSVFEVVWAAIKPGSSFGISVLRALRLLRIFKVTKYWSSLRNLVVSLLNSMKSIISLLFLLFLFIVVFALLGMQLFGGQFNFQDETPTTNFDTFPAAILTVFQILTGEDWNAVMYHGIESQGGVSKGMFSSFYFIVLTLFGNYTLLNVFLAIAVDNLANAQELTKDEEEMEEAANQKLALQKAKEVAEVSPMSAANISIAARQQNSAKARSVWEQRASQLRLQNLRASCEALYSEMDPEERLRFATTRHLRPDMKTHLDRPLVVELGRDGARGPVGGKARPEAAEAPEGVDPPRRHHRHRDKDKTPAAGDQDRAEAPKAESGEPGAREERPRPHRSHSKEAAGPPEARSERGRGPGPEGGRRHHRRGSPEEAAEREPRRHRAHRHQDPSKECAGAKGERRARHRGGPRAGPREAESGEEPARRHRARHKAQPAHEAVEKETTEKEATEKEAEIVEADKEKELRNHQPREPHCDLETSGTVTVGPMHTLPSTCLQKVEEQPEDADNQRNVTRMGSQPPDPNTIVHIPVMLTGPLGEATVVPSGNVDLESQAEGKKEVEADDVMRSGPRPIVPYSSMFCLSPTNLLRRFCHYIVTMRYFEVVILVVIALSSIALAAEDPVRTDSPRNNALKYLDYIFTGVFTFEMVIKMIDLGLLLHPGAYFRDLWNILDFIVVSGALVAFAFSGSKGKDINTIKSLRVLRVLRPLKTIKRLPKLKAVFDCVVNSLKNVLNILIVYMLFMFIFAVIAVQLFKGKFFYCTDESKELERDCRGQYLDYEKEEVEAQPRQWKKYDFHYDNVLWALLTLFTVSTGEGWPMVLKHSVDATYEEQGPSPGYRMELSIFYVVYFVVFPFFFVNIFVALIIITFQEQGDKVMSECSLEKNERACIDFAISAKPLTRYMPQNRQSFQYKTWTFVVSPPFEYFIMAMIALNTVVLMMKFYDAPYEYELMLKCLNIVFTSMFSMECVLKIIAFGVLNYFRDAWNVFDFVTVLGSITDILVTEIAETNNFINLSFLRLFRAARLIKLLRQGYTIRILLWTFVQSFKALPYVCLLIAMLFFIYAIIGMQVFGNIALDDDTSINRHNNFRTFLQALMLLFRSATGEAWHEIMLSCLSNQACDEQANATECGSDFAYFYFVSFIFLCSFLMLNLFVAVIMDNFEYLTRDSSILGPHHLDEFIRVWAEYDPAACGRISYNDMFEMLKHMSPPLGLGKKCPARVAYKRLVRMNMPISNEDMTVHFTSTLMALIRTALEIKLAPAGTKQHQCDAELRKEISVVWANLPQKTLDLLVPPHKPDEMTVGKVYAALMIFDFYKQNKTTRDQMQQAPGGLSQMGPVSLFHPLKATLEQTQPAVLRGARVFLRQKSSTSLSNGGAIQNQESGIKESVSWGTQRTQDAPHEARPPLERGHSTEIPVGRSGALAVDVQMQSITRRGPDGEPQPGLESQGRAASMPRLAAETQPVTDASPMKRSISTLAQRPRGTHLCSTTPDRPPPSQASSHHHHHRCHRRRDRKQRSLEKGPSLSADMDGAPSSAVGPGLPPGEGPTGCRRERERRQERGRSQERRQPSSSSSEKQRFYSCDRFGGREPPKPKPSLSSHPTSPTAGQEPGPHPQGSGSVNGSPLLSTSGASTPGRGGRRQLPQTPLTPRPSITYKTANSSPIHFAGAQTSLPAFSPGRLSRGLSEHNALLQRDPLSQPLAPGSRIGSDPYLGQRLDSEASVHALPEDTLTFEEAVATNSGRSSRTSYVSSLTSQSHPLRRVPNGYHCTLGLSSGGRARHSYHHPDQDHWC
# Screen size: about 290,000 compounds; about 570 (0.2%) were called active. The shares of active, inactive and inconclusive entries below differ from those in the screen. No stated cut-off is given here; in the data, active means inhibition mostly above about 51% (no sharp cut-off); inconclusive means no clear call, values can overlap the other calls; inactive means mostly below about 53%.
# Target: Voltage-dependent N-type calcium channel subunit alpha-1B (Homo sapiens) (UniProt Q00975)
# Test: disruptors of CaV2.2 binding to Mint1 – biochemical, HTRF (AID 2073)
# Details: HTRF protein-protein interaction, Mint1-CaV2.2; at 20 µM; active compounds read high
row,Compound,inhibition
1,COc1ccc(C(=O)Nc2ccc3ccccc3c2)cc1,inconclusive: 79%
2,CCc1ccc(NC(=S)N(Cc2ccccc2)Cc2ccccn2)cc1,inconclusive: 65%
3,CC(NC(=O)C1CCCN(C(=O)N(C)C)C1)c1ccccc1 (stereo not given),inactive: 0.8%
4,COc1ccc(C(=O)Nc2ccccc2)cc1S(=O)(=O)Nc1cc(C)on1,inconclusive: 68.4%
5,CNC(=S)N(CCc1cccc(C)c1)Cc1cc2cc(OC)c(OC)cc2[nH]c1=O,inactive: 46.2%
6,Nc1ccccc1N=c1ssnc1Cl,inactive: 4.1%
7,COc1cc(NC(=O)CCc2nnc3ccc(N4CCCC4)nn23)cc(OC)c1OC,inconclusive: 60.2%
8,Cc1ccc(OCc2nnc(SCC(=O)NCc3ccccc3)n2C)cc1,inconclusive: 63.4%
9,O=C(Nc1cccc(S(=O)(=O)NC2=NCCC2)c1)c1cc(-c2ccco2)nc2ccccc12,active: 61.9%
10,O=C1/C(=C/c2ccccc2)Oc2cc(OC(=O)N3CCOCC3)ccc21,inconclusive: 53%
11,Cc1ccc(C(=O)NCCc2nnc3ccc(NCc4ccc5c(c4)OCO5)nn23)cc1,inactive: -1.4%
12,CC(C)CCN1C(=O)c2ccc(C(=O)NCc3ccco3)cc2C1=O,inconclusive: 58.5%
13,CCn1c(SCC(N)=O)nc2c(c1=O)C1(CCCC1)Cc1ccccc1-2,inconclusive: 87.9%
14,COc1cc2c3nnc(-c4ccccc4)c-3cn(Cc3ccc(F)cc3)c2cc1OC,inconclusive: 68.4%
15,Cc1nn(C)c(C(=O)Nc2ccc3c(c2)OCO3)c1[N+](=O)[O-],inconclusive: 55.4%
16,O=c1cc(-c2ccccc2)nc2c(-c3ccccc3)c(C(F)(F)F)[nH]n12,inconclusive: 59.7%
17,Cc1c(CCC(=O)NCCCN2CCCC2=O)c(=O)oc2cc(O)ccc12,inconclusive: 51%
18,O=C(O)c1ccc2nc(-c3ccco3)c(-c3ccco3)nc2c1,inconclusive: 90.1%
19,Nc1cccc(-c2nc3ccc(N)cc3s2)c1,inconclusive: 66.2%
20,O=C(O)Cn1nnnc1-c1ccc(F)cc1,inactive: 0%
21,Cc1cc(O)c(C(=O)Nc2cccc(Cl)c2)c(=O)n1C,inconclusive: 57.4%
22,CCN(C(=O)CN1C(=O)c2ccc([N+](=O)[O-])cc2C1=O)C1CCCCC1,inconclusive: 57.3%
23,CCOc1ccc(C2/C(=C(/O)c3ccc4c(c3)CC(C)O4)C(=O)C(=O)N2CCCn2ccnc2)cc1OCC (stereo not given),inconclusive: 51.2%
24,O=C(Nc1ccc(C(=O)Oc2ccccc2)c(O)c1)c1ccco1,inconclusive: 71.1%
25,CCOC(=O)CNS(=O)(=O)c1ccc2c3c(cccc13)C(=O)N2CC,inconclusive: 62.6%

# An excerpt from above in order of length of the SMILES, low to high:
row,Compound,inhibition
1,COc1ccc(C(=O)Nc2ccc3ccccc3c2)cc1,inconclusive: 79%
3,CC(NC(=O)C1CCCN(C(=O)N(C)C)C1)c1ccccc1 (stereo not given),inactive: 0.8%
23,CCOc1ccc(C2/C(=C(/O)c3ccc4c(c3)CC(C)O4)C(=O)C(=O)N2CCCn2ccnc2)cc1OCC (stereo not given),inconclusive: 51.2%
